Test results as given in US20080227728A1, “Therapeutic Agent for the Treatment of a Condition Associated with Peripheral Vascular Disease” (LABORATORIOS BELMAC, S.A., priority 2005, published 2008).
For at least one compound, name, drawing or mass did not settle the structure.

Tests used:
[1] = test system: individuals showing problems related to venous insufficiency; assay: Administration of oleuropein to patients suffering from venous insufficiency (general statements)
[2] = test system: patient suffering from chronic venous insufficiency; assay: Effects of a topical oleuropein formulation on the leg of patients with chronic venous insufficiency; format: in vivo, human; settings: oil according Example 1 with oleuropein 0.2% w/w
[3] = Example 4, 1-2 ml topical every 12 hours for 15 days, then once a day, after two months
[4] = Example 5, topical, after one month

Q: With `C/C=C1/[C@H](O[C@@H]2O[C@H](CO)[C@@H](O)[C@H](O)[C@H]2O)OC=C(C(=O)OC)[C@H]1CC(=O)OCCc1ccc(O)c(O)c1` [oleuropein] as the molecule, how does the peripheral circulation ([1]; individuals with problems derived from peripheral vascular disease affecting the lower limbs) read?
A: improves peripheral circulation

Q: What about the phlebotonic effect ([1]; people showing problems related to venous insufficiency) of the same molecule?
A: has a phlebotonic effect

Q: What about the “brown coloration of the tissue (incipient necrosis lesion on the back of the leg)” value [2, 3] of the same molecule?
A: clearly diminished

Q: What about the “revitalization of the central area and borders of the lesion” value [2, 3] of the same molecule?
A: A revitalization both of the central area of the lesion, showing sane tissue with normal coloration, and of the borders

Q: What about the “general volume of the limb” value ([2]; Example 5, 1-2 ml topical every 12 hours for 15 days, then once a day, after one month) of the same molecule?
A: clearly diminished

Q: What about the damaged tissue area [2, 4] of the same molecule?
A: also diminished

Q: And the elevated inflammatory areas [2, 4]?
A: significant decline

Q: And the “general colouring change of the leg” value [2, 4]?
A: from a dark bluish colour to a more pink tone

Q: And the “oozings and dermal scabs” value [2, 4]?
A: diminishing

Q: What about the “tissue perfusion (external signs)” value [2, 4] of the same molecule?
A: improvement
